This is one part of the list.

Amino acid sequences for entries named in this document (tags omitted).
UniProt Q0JBA9, entry or part of it: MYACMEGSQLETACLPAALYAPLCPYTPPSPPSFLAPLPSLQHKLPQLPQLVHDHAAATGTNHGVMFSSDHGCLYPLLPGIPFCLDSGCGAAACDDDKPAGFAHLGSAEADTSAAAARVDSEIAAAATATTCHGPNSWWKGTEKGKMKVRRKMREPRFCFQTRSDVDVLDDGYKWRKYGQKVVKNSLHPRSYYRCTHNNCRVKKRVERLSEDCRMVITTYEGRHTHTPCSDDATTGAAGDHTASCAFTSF

The assay addresses OsWRKY34 (Oryza sativa, UniProt Q0JBA9 1-250). The experiment in a line: protein-binding microarray (RPBM); PBS, 2% BSA, 51.3 ng/ul salmon testes DNA, 50 uM zinc acetate, 200 nM TF, 25 C, 1 h; high values mean tight binding. The settings on record: protein: recombinant; tags: N-terminal polyhistidine and DsRed monomer fusion (pET32a); label: CyDye5-dUTP incorporated in the synthesized complementary strand; 3' TTTTT single-stranded linker to array surface; dsDNA, one strand shown. The essentials:
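Ni–NTA purification followed expression in E. coli BL21-CodonPlus of transcription factors fused N-terminally to a polyhistidine tag and DsRed. At 200 nM in PBS with 2% BSA, salmon testes DNA and 50 µM zinc acetate, the protein was incubated for 1 h at 25 °C with a custom Agilent array that had been primer-extended with Cy5-dUTP and blocked with 2% BSA. After washing, the array was read on an Axon 4000B scanner. The binding signal is per-feature fluorescence intensity in arbitrary units.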
Consider “ATTCTTTCTGCGTGTAGGTGTGCTTTCCTCTCTTTTTTTTCGGAGTCACCTAGTGCAG”, for which the binding signal is 12300 fluorescence intensity (a.u.).

For “ACCATCCATTTTCCGTTGACTATCAATGTTTCTTGTGAACCGGAGTCACCTAGTGCAG”, the binding signal is 15100 fluorescence intensity (a.u.). For “AGCGTGACCATGTCGTCGTCTTCCCCTTGCCGGCCGGCCGCGGAGTCACCTAGTGCAG”, the binding signal was 9060 fluorescence intensity (a.u.).

As for “GCCTACTCCTACTTGTACATACTTGCTTTTTTTTTTTTTCCGGAGTCACCTAGTGCAG”, the binding signal was 17500 fluorescence intensity (a.u.). With “ACGTACCATTCTGTCTGAAGTAGAATGTATGTTTGACGTCCGGAGTCACCTAGTGCAG” the figure was 8850 fluorescence intensity (a.u.); with “AGATATCCGGTTTTGTAGTTTAGGGTCATGGTTTAGATTTCGGAGTCACCTAGTGCAG”, 10700 fluorescence intensity (a.u.). For “TTTTAGTTGGTTAATTTTTGTGTTTGAGTTATTTGCAATGCGGAGTCACCTAGTGCAG”, the binding signal is 8910 fluorescence intensity (a.u.). For “TTAAATGAGTGTTGACTTTTCGTATAACGTTTGACCATTTCGGAGTCACCTAGTGCAG”, the binding signal is 14600 fluorescence intensity (a.u.). As for “AGGGGTTGTAAACTGGGAGTAGAGAGCCTTTTTCCAGCGGCGGAGTCACCTAGTGCAG”, the binding signal is 8220 fluorescence intensity (a.u.). For “ATTTTACCGATTTACTATTTATGCAAGCTTACACTGGTGACGGAGTCACCTAGTGCAG”, the binding signal was 8480 fluorescence intensity (a.u.). Take “CTTGGGGAAGGCGGCGGGTGTCGGGGAGGGCGAGGGTATCCGGAGTCACCTAGTGCAG”: the binding signal is 18000 fluorescence intensity (a.u.).

As for “AAATATCCGAGTCTTCCTTGAACCAGTTCCTTGACTCCACCGGAGTCACCTAGTGCAG”, the binding signal is 8580 fluorescence intensity (a.u.).

Turning to “CCTCTTTGTTCCTCGTCGGTAATCATCTATCTGGACCTATCGGAGTCACCTAGTGCAG”, the binding signal is 9330 fluorescence intensity (a.u.). Take “CGCGCCGGGTGGCGTTGGTGTTGGCGCCGGGGAGGGTCAGCGGAGTCACCTAGTGCAG”: the binding signal is 9140 fluorescence intensity (a.u.). Regarding “ATCTCTTTCGTTTTGACCACTTTTGGCTTGTTTCAGAGAACGGAGTCACCTAGTGCAG”, the binding signal is 11600 fluorescence intensity (a.u.). On to “TCAACTGGGAGGCAAATATCTTCATCGTGTTCGTCATTTTCGGAGTCACCTAGTGCAG”, for which the binding signal is 8820 fluorescence intensity (a.u.).

On to “GTCCTCGTCTCCACGCTACCGTTTCGCAACCACCCGCTTCCGGAGTCACCTAGTGCAG”, for which the binding signal is 12700 fluorescence intensity (a.u.). For “ACCCACCACATCGACGCGACCACACTCCACACAAGCCATGCGGAGTCACCTAGTGCAG”, the binding signal was 10100 fluorescence intensity (a.u.).

Consider “ATCGGTCGCCTTTTGGATTGTTGTCCCAGCCCAAACAAACCGGAGTCACCTAGTGCAG”, for which the binding signal is 8690 fluorescence intensity (a.u.). With “ATATATATATATATATATATATATATATATATATATTCTACGGAGTCACCTAGTGCAG” the figure was 9390 fluorescence intensity (a.u.); with “GTCCACACTCCGCGCTCCCGTGATCGCGCATCATACTTAACGGAGTCACCTAGTGCAG”, 10300 fluorescence intensity (a.u.); with “CCTTGCCTTTTCTGGTCTAGGCGTATCTGTCGTATTGGGCCGGAGTCACCTAGTGCAG”, 10400 fluorescence intensity (a.u.). Turning to “CGCATCCGCATGAGCAGCGCGCATCGCCGTGTTCTTCACTCGGAGTCACCTAGTGCAG”, the binding signal is 8710 fluorescence intensity (a.u.). In the case of “AAATTAGGCTAAGATCTTGTTTTGTTCTTCTTGTTTAATTCGGAGTCACCTAGTGCAG”, the binding signal was 11500 fluorescence intensity (a.u.).

For “ACCTTTCATAAGCTTAGTGGTATTCTCAAACCCATAGTATCGGAGTCACCTAGTGCAG”, the binding signal was 8670 fluorescence intensity (a.u.). For “GGTGGTTCGTGAAGGGGACGGAGGGGTGGACGGGGCTGGTCGGAGTCACCTAGTGCAG”, the binding signal was 12400 fluorescence intensity (a.u.). As to “AAATGTAGTTTTGCACTGTTCATGTCCAACGTTTGACCATCGGAGTCACCTAGTGCAG”, the binding signal is 9750 fluorescence intensity (a.u.). On to “CGTTCTGTCATTTGGGTTTTATGTTTGTTCTCTCTTGTTTCGGAGTCACCTAGTGCAG”, for which the binding signal is 12000 fluorescence intensity (a.u.). As to “CCCATCCTCTCTCTCTCTCTCTCTCTCGCTCGCATCGCCTCGGAGTCACCTAGTGCAG”, the binding signal was 8810 fluorescence intensity (a.u.). With “CGCCGACTTCACCTACGTGTTCACCAGCTTCCACGGCATGCGGAGTCACCTAGTGCAG” the figure was 12300 fluorescence intensity (a.u.).

Take “GCATACTTTCTATTTGCGCATCTCCCTGTCCTCAAAACAACGGAGTCACCTAGTGCAG”: the binding signal is 10300 fluorescence intensity (a.u.).

As to “TCCGTCCTCGCATTCTCGGCTTCTCGCCACCGGCCCACGCCGGAGTCACCTAGTGCAG”, the binding signal was 9200 fluorescence intensity (a.u.). Take “GGGGCACATACCTGATTACGAAAAATTGGAGGGCTTTTTCCGGAGTCACCTAGTGCAG”: the binding signal is 8650 fluorescence intensity (a.u.). With “TTATATTCATGCTTGTTGATGCATTCTTTTTTGGACAACTCGGAGTCACCTAGTGCAG” the figure was 9970 fluorescence intensity (a.u.). Regarding “TCCTCCTCTTCCTCGCCGTTGCCGCCGCCGCCACCATCGCCGGAGTCACCTAGTGCAG”, the binding signal is 8440 fluorescence intensity (a.u.). Consider “TCCCATCATCCCTTCACCCACCCGCACGCGTCTCCTCCGACGGAGTCACCTAGTGCAG”, for which the binding signal is 9440 fluorescence intensity (a.u.). Take “CGTCCCATTTTAAATACAGTTATGTTTTTTCGTGCTCAACCGGAGTCACCTAGTGCAG”: the binding signal is 10400 fluorescence intensity (a.u.). Take “CTATTCCATTCTGCTACTAGTATACTCCTTCAGTAGTGCACGGAGTCACCTAGTGCAG”: the binding signal is 8090 fluorescence intensity (a.u.). Consider “GCCCTCACTACAAGAATCACATATTTCTCACAGCAAGCATCGGAGTCACCTAGTGCAG”, for which the binding signal was 8440 fluorescence intensity (a.u.). Consider “TTTTCTACTGTTTCCAACCCTTTTCGTCGCTACTCCTACACGGAGTCACCTAGTGCAG”, for which the binding signal was 9280 fluorescence intensity (a.u.). Consider “TCGGTTCCGTGGTTCGTCTAGGGTTTAGTGGGTTGAGATGCGGAGTCACCTAGTGCAG”, for which the binding signal was 10100 fluorescence intensity (a.u.). As for “ACCGAATCCGAATCCCGCGTTTCTTTGTTGCGCGCGCGACCGGAGTCACCTAGTGCAG”, the binding signal is 10100 fluorescence intensity (a.u.).
